# ± gives the standard deviation of the averaged measurements. The entries are a selection whose mix differs from that of the whole data set. This data set is noisy: repeats of one test often differ as much as different tests do.
# Test system: FaDu
# Test: mitochondrial oxygen consumption rate normalised to cell number, Z score over the library; higher = higher oxygen consumption (negative = OCR reduction)
# Conditions: treatment time 24 h, assay medium: 5 mM galactose, 5 mM pyruvate, 4 mM glutamine
# Description: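 Primary screen: FaDu cells were incubated 24 h with Pharmakon 1600 / TDI oncology set compounds at 2 or 10 uM. Mitochondrial-specific OCR (basal minus 2 uM antimycin A) was measured on a Seahorse XF96 in assay medium with 5 mM galactose, 5 mM pyruvate and 4 mM glutamine, then corrected for Hoechst cell number and expressed as a Z score […]. Compounds that cut cell number by >66% were excluded. Two repeats.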
Structure (SMILES),mitochondrial oxygen consumption rate normalised (2 µM),mitochondrial oxygen consumption rate normalised (10 µM)
CCOC(=O)NC(=S)Nc1ccccc1NC(=S)NC(=O)OCC,-1 ± 1.1,-0.249 ± 0.0062
CC(=O)Oc1ccc(Cl)c2cccnc12,-1.66 ± 0.5,–
O=P1(NCCCl)OCCCN1CCCl (configuration not stated) [Ifosfamide],0.177 ± 0.57,–
O=P1(NCCCl)OCCCN1CCCl (configuration not stated),0.478 ± 1.6,–
Oc1ccc(Cl)cc1,-0.023 ± 0.38,–
CC(C)c1c(CN(C)C(C)Cc2ccccc2)n(C)n(-c2ccccc2)c1=O (configuration not stated),-0.187 ± 0.22,–
O=c1[nH]c(=O)n(Cl)c(=O)n1Cl,0.618 ± 0.097,0.623 ± 1.2
NC(=O)CN1CCCC1=O,-0.39 ± 0.64,–
C[C@@H](CO)NC(=O)[C@@H]1C=C2c3cccc4[nH]cc(c34)C[C@H]2N(C)C1,0.0751 ± 0.15,–
Clc1ccc(C(OCCN2CCCCC2)c2ccccc2)cc1 (configuration not stated),-0.571 ± 0.44,–
Cc1c(N)nc([C@H](CC(N)=O)NC[C@H](N)C(N)=O)nc1C(=O)N[C@H](C(=O)N[C@H](C)[C@@H](O)[C@H](C)C(=O)N[C@H](C(=O)NCCc1nc(-c2nc(C(=O)NCCC[S+](C)C)cs2)cs1)[C@@H](C)O)[C@@H](OC1OC(CO)C(O)C(O)C1OC1OC(CO)C(O)C(OC(N)=O)C1O)c1cnc[nH]1 (some centres not stated) [Bleomycin],0.429 ± 0.62,–
Oc1ncc(N(CCCl)CCCl)c(O)n1 [Uracil mustard],0.783 ± 0.74,–
NC(=O)C[S+]([O-])C(c1ccccc1)c1ccccc1 (configuration not stated),-0.471 ± 0.58,–
CC(=O)OCC1=C(C(=O)O)N2C(=O)[C@@H](NC(=O)CCC[C@@H](N)C(=O)O)[C@H]2SC1,-0.887 ± 0.38,–
Cc1cccc(C)c1NC1=NCCCS1,1.4 ± 0.75,–
CNC(C)C(O)c1ccccc1 (configuration not stated),-0.171 ± 0.82,0.176 ± 0.34
COc1cc([C@@H]2c3cc4c(cc3[C@H](O)[C@H]3COC(=O)[C@H]23)OCO4)cc(OC)c1OC,-1.42 ± 0.17,–
Cc1ccc(O)cc1.Cc1cccc(O)c1.Cc1ccccc1O,1.49 ± 0.75,–
CCNC1(c2cccs2)CCCCC1=O (configuration not stated),-0.00527 ± 0.29,–
C[C@@H]1CC[C@H]2[C@@H](C)C(=O)O[C@@H]3O[C@@]4(C)CC[C@@H]1[C@]32OO4,0.424 ± 0.75,–
CC[C@H]1[C@@H]2C[C@H]3[C@@H]4N(C)c5ccccc5[C@]45C[C@@H]([C@@H]2[C@H]5O)N3[C@@H]1O,-0.41 ± 0.68,–
CC1(C)C(C=C(Cl)Cl)C1C(=O)OCc1cccc(Oc2ccccc2)c1 (configuration not stated),0.301 ± 0.042,–
CCN(C(C)=O)c1cccc(-c2ccnc3c(C#N)cnn23)c1,-0.0611 ± 0.038,–
CNC(C)[C@H](O)c1ccccc1 (some centres not stated),0.143 ± 0.4,–
O=[N+]([O-])c1ccc([As](=O)(O)O)cc1,1.24 ± 0.7,–
COC(=O)C(c1ccccc1)C1CCCCN1 (configuration not stated),0.333 ± 1.8,–

Structure (SMILES),mitochondrial oxygen consumption rate normalised (2 µM),mitochondrial oxygen consumption rate normalised (10 µM)
CO[C@]12C[C@@H](COC(=O)c3cncc(Br)c3)CN(C)[C@@H]1Cc1cn(C)c3cccc2c13,0.528 ± 0.35,–
CC(=O)[C@H]1CC[C@H]2[C@@H]3CC[C@@H]4C[C@H](O)CC[C@]4(C)[C@H]3CC[C@]12C,0.21 ± 0.55,–
OC[C@@H](O)[C@H]1O[C@@H]2O[C@H](C(Cl)(Cl)Cl)O[C@@H]2[C@H]1O,-0.375 ± 0.41,–
C[N+]12CCC(CC1)C(OC(=O)C(O)(c1ccccc1)c1ccccc1)C2 (configuration not stated),-0.326 ± 0.77,–
CC(CC(C(N)=O)(c1ccccc1)c1ccccc1)N(C)C (configuration not stated),-0.0818 ± 0.19,–
CC(C)C[C@H](CN)CC(=O)O,-0.705 ± 0.86,–
CN(C)C(=S)SSC(=S)N(C)C,0.386 ± 0.14,0.578 ± 0.018
CC(C)(C)NCC(O)c1ccccc1Cl (configuration not stated),-0.202 ± 0.19,–
CCC(C)(C)O,0.322 ± 1.2,–
CC(=O)O[C@H]1C[C@H](O[C@H]2[C@@H](O)C[C@H](O[C@H]3[C@@H](O)C[C@H](O[C@H]4CC[C@@]5(C)[C@H](CC[C@@H]6[C@@H]5C[C@@H](O)[C@]5(C)[C@@H](C7=CC(=O)OC7)CC[C@]65O)C4)O[C@@H]3C)O[C@@H]2C)O[C@H](C)[C@H]1O[C@@H]1O[C@H](CO)[C@@H](O)[C@H](O)[C@H]1O,-4.61 ± 0.46,–
COc1ccc(CCN2CCC(Nc3nc4ccccc4n3Cc3ccc(F)cc3)CC2)cc1,0.412 ± 0.22,–
CCC(N)C(O)c1ccc(O)c(O)c1 (configuration not stated),0.773 ± 1.1,–
CC1(C)C(C=C(Cl)Cl)C1C(=O)OC(C#N)c1cccc(Oc2ccccc2)c1 (configuration not stated),-0.0639 ± 1,–
Oc1cc(Cl)ccc1Oc1ccc(Cl)cc1Cl,-0.0667 ± 0.036,–
C[C@]12N[C@H](Cc3ccccc31)c1ccccc12,-0.115 ± 0.096,–
C[C@]12CC[C@H]3[C@@H](CC[C@@]45O[C@@H]4C(O)=C(C#N)C[C@]35C)[C@@H]1CC[C@@H]2O,1.05 ± 0.062,–
O=C(N/N=C/c1ccc([N+](=O)[O-])o1)c1cc([N+](=O)[O-])cc([N+](=O)[O-])c1O,-0.154 ± 0.61,–
COc1ccc(Cc2nccc3cc(OC)c(OC)cc23)cc1OC,-0.178 ± 0.71,–
CCC1(CC)C(=O)C=CNC1=O,0.611 ± 0.93,–
O=C(NC(=O)c1c(F)cccc1F)Nc1cc(Cl)c(OC(F)(F)C(F)C(F)(F)F)cc1Cl (configuration not stated),-0.0407 ± 0.032,–
CNCC(=O)c1ccc(O)c(O)c1,-0.648 ± 0.43,–
CC(C)(C)NCC(O)c1cc(Cl)c(N)c(Cl)c1 (configuration not stated),-0.257 ± 0.4,–
C[C@H](N)Cc1ccccc1,-0.383 ± 1.1,–
COc1cc2c(cc1OC)[C@@]13CCN4CC5=CCO[C@H]6CC(=O)N2[C@H]1[C@H]6[C@H]5C[C@H]43,0.223 ± 0.42,–
COC(=O)C1=CCCN(C)C1,-0.399 ± 0.78,–
CCC1(c2ccc(N)cc2)CCC(=O)NC1=O (configuration not stated),1.74 ± 1.1,–

Structure (SMILES),mitochondrial oxygen consumption rate normalised (2 µM),mitochondrial oxygen consumption rate normalised (10 µM)
CCN(C)C(=O)Oc1cccc([C@H](C)N(C)C)c1,-0.548 ± 0.21,–
C[C@@H](N)[C@@H](O)c1ccccc1,-0.0237 ± 0.52,–
CN(C)C(=O)Oc1cc(OC(=O)N(C)C)cc(C(O)CNC(C)(C)C)c1 (configuration not stated),-0.465 ± 0.51,–
CC[C@@H](c1cccc(O)c1)[C@@H](C)CN(C)C,0.915 ± 0.57,–
CCn1cc(C(=O)O)c(=O)c2cc3c(cc21)OCO3,0.699 ± 0.3,–
C[N+]1(C)[C@@H]2C[C@@H](OC(=O)[C@H](CO)c3ccccc3)C[C@H]1[C@@H]1O[C@@H]12,0.404 ± 0.24,–
C[N+]1([O-])[C@@H]2CC[C@H]1C[C@@H](OC(=O)C(CO)c1ccccc1)C2 (some centres not stated),-0.873 ± 1.1,–
N=C1NC(=O)N2CC12 (configuration not stated),0.389 ± 2.1,–
COc1ccc(O)c(C(C)(C)C)c1.COc1ccc(O)cc1C(C)(C)C,-1.12 ± 1.5,–
C[C@]12CC[C@@H]3c4ccc(OC(=O)N(CCCl)CCCl)cc4CC[C@H]3[C@@H]1CC[C@@H]2O,0.404 ± 0.71,–
CCN1C[C@]2(COC)[C@H](O)C[C@H](OC)[C@@]34[C@@H]5C[C@@]6(O)[C@H](OC(=O)c7ccccc7)[C@@H]5[C@@](OC(C)=O)([C@@H]([C@H](OC)[C@H]23)[C@@H]14)[C@@H](O)[C@@H]6OC,-1.39 ± 0.4,–
O=[N+]([O-])c1cc([As](=O)(O)O)ccc1O,0.648 ± 0.55,–
Nc1ccncc1,0.745 ± 0.016,–
O=C(O)CCCc1ccc(N(CCCl)CCCl)cc1 [Chlorambucil],0.543 ± 0.35,–
O=C(O)CCCc1ccc(N(CCCl)CCCl)cc1,-2.98 ± 0.24,–
O=C(O[C@H]1C[C@H]2CC[C@@H](C1)[N+]21CCCC1)C(O)(c1ccccc1)c1ccccc1,0.137 ± 0.99,–
COc1ccc(C(=O)N2CCCC2=O)cc1,-0.958 ± 0.63,–
Oc1noc2c1CCNC2,-2.23 ± 0.1,–
CCCC(C)C1(CC)C(=O)NC(=S)NC1=O (configuration not stated),-0.128 ± 0.012,–
O=C1C=C2C=C[C@@H]3C[C@@]2(O1)[C@H]1CCCCN31,0.0589 ± 0.39,–
CC(C)=CC1C(C(=O)OCc2cccc(Oc3ccccc3)c2)C1(C)C (configuration not stated),1.21 ± 1.2,–
NC(=O)C[S@@+]([O-])C(c1ccccc1)c1ccccc1,0.29 ± 0.78,–
O=C1C[C@@H]2OCC=C3CN4CC[C@]56c7ccccc7N1[C@H]5[C@H]2[C@H]3C[C@H]46,1.25 ± 0.92,–
N#Cc1nn(-c2c(Cl)cc(C(F)(F)F)cc2Cl)c(N)c1[S+]([O-])C(F)(F)F (configuration not stated),0.926 ± 0.16,–
NCCc1cc(O)c(O)cc1O,-0.901 ± 1.3,–
c1ccc2nc(N3CCNCC3)ccc2c1,0.645 ± 1.4,–

# Looked up one by one from the entries so far, 3 records:
Structure (SMILES),mitochondrial oxygen consumption rate normalised (2 µM),mitochondrial oxygen consumption rate normalised (10 µM)
C[N+]1(C)[C@@H]2C[C@@H](OC(=O)[C@H](CO)c3ccccc3)C[C@H]1[C@@H]1O[C@@H]12,0.404 ± 0.24,–
N#Cc1nn(-c2c(Cl)cc(C(F)(F)F)cc2Cl)c(N)c1[S+]([O-])C(F)(F)F (configuration not stated),0.926 ± 0.16,–
CCN1C[C@]2(COC)[C@H](O)C[C@H](OC)[C@@]34[C@@H]5C[C@@]6(O)[C@H](OC(=O)c7ccccc7)[C@@H]5[C@@](OC(C)=O)([C@@H]([C@H](OC)[C@H]23)[C@@H]14)[C@@H](O)[C@@H]6OC,-1.39 ± 0.4,–

# Continued:

Structure (SMILES),mitochondrial oxygen consumption rate normalised (2 µM),mitochondrial oxygen consumption rate normalised (10 µM)
C[N+](C)(C)CCCCCCCCCC[N+](C)(C)C,0.0512 ± 1.1,–
C[N+]1(C)[C@@H]2CC[C@H]1C[C@@H](OC(=O)C(CO)c1ccccc1)C2 (some centres not stated),0.962 ± 0.84,–
CN1C[C@H](C(=O)N[C@]2(C)O[C@@]3(O)[C@@H]4CCCN4C(=O)[C@H](Cc4ccccc4)N3C2=O)C[C@@H]2c3cccc4[nH]cc(c34)C[C@H]21,0.00853 ± 0.32,–
CC(=O)OC1CN2CCC1CC2 (configuration not stated),0.131 ± 0.18,–
CC(CCc1ccccc1)NC(C)C(O)c1ccc(O)cc1 (configuration not stated),0.202 ± 0.24,–
COc1cccc(C2(O)CCCCC2CN(C)C)c1 (configuration not stated),-0.702 ± 0.4,–
N.N.[Cl][Pt][Cl],0.144 ± 0.092,0.355 ± 0.5
N.N.[Cl][Pt][Cl] [Cisplatin],0.633 ± 0.091,-0.167 ± 0.0067
CCCN1C[C@H](CSC)C[C@@H]2c3cccc4[nH]cc(c34)C[C@H]21,0.623 ± 1.3,–
CC(C)(O)C(Cl)(Cl)Cl,0.209 ± 0.7,–
Oc1cccc2cccnc12,-0.493 ± 0.14,–
Cc1ncc(CNC(=O)N(CCCl)N=O)c(N)n1,-0.13 ± 0.092,–
CNc1ccc(C(=O)CC(O)CCC(C)C2OC(=O)CC(O)CC(=O)CC(O)CC(O)CC(O)CC(O)CC3(O)CC(O)C(C(=O)OC)C(CC(O[C@@H]4O[C@H](C)[C@@H](O)[C@H](N)[C@@H]4O)/C=C/C=C/C=C/C=C/C=C/C=C/C=C/C2C)O3)cc1.COC(=O)C1C(O)CC2(O)CC(O)CC(O)CC(O)CC(O)CC(=O)CC(O)CC(=O)OC(C(C)CCC(O)CC(=O)c3ccc(N)cc3)C(C)/C=C/C=C/C=C/C=C/C=C/C=C/C=C/C(O[C@@H]3O[C@H](C)[C@@H](O)[C@H](N)[C@@H]3O)CC1O2 (some centres not stated),-0.744 ± 0.59,–
Cc1cc(O)ccc1Cl,-0.029 ± 0.18,–
C=C[C@H]1CN2CC[C@H]1C[C@H]2[C@H](OC(=O)OCC)c1ccnc2ccc(OC)cc12,-1.08 ± 0.46,–
COc1ccc(CN2CCNCC2)c(OC)c1OC,0.499 ± 0.46,–
CC[C@H]1CN2CC[C@H]1C[C@@H]2[C@@H](O)c1ccnc2ccc(OC)cc12,-3.3 ± 0.11,–
CC(C)N(CCC(C(N)=O)(c1ccccc1)c1ccccn1)C(C)C (configuration not stated),-0.0968 ± 0.55,–
N=C(N)NN,0.366 ± 0.37,–
O=[N+]([O-])O[C@@H]1CO[C@H]2[C@@H]1OC[C@@H]2O,1.02 ± 0.45,–
N[C@@H](Cc1ccc(N(CCCl)CCCl)cc1)C(=O)O [Melphalan],0.97 ± 0.82,–
N[C@@H](Cc1ccc(N(CCCl)CCCl)cc1)C(=O)O,1.68 ± 1.9,–
Cc1ccc(-c2nc3ccc(C)cn3c2CC(=O)N(C)C)cc1,-0.0713 ± 0.22,–

# Reference: the supplement of paper PMC4962491
